Earlier results, collected in US9295679B2, “Prodrugs of C-17-heteroaryl steroidal CYP17 inhibitors/antiandrogens: synthesis, in vitro biological activities, pharmacokinetics and antitumor activity” (University of Maryland, Baltimore, priority 2008, dated 2016).
Some of these results come from one statement about several compounds together.

Tests used:
[1] = test system: DHT-stimulated LNCaP prostate cancer cells; conditions: read-out: IC50 (growth inhibition); cited from earlier work
[2] = test system: DHT-stimulated LAPC4 prostate cancer cells; conditions: read-out: IC50 (growth inhibition); cited from earlier work

C[C@]12CC[C@H](O)CC1=CC[C@@H]1[C@@H]2CC[C@]2(C)C(n3cnc4ccccc43)=CC[C@@H]12 [Compound 5, 3β-hydroxy-17-(1H-benzimidazole-1-yl)androsta-5,16-diene]
IC50 [1]: < 10 µM | IC50 [2]: < 10 µM
